# Measured values from PubChem BioAssay AID493014 (National Center for Advancing Translational Sciences (NCATS), 2011).
# Several values for one entry are separate records, joined by “and”; a condition that tells them apart may be missing. Equal values may be shown once. Some of the results follow. These are further read-outs of the screen, such as a control signal, another cell line or another target. No call is given for them. Compounds called inactive in the main read-out are mostly missing here. Words in brackets tell the shape of the fitted curve; partial curves, single points and poor fits give uncertain potencies.
# Assay: qHTS Assay to Find Inhibitors of Chronic Active B-Cell Receptor Signaling
# Settings: ABC-DLBCL IkBa-CBG/CBR reporter, luminescence ratio (green luciferase fused to IkBa over red control in TMD8 lymphoma cells), 4 h
# Procedure, shortened: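 Doxycycline induced both beetle luciferases in TMD8 lymphoma cells; IKK-driven degradation limits the IkappaBalpha-fused green signal, while red luminescence normalises for cell number and nonspecific effects. Compounds tested up to 46 uM, 4 hrs.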
# [1] = measured here: CBR red luminescence, cell number
SMILES,AC50 [1],AC50 (measured here: IkBa-CBG green luminescence)
O=C(Nc1ccccc1SCC1CSc2nc3ccccc3c(=O)n21)c1ccccc1 (stereo unspecified),"25.9 µM [falling, partial curve, poor fit]",–
CC(C)NC(=O)C1CCN(C2CCN(CC3CC=CCC3)CC2)CC1 (stereo unspecified),"11.2 µM [rising, partial curve, poor fit]",–
CCc1ccc(NC(=O)COc2ccc(F)cc2C(=O)c2cnn(-c3ccccc3)c2)cc1,"25.9 µM [rising, single point]",–
CCC/C(=C1/c2ccccc2C(=O)N1c1ccccc1)c1ccc2[nH]ccc2c1,"14.6 µM [falling, partial curve, poor fit]",–
COc1ccccc1N(CC(=O)Nc1ccc2c(c1)OCCO2)S(=O)(=O)c1ccc(C)cc1,"25.1 µM [falling, partial curve, poor fit]",–
CCOc1ccc(NC(=O)N[C@@H](CCSC)C(=O)OC)cc1,"23.1 µM [rising, single point]",–
CCN(CC)S(=O)(=O)c1cccc(NC(=O)Nc2cccc(C(F)(F)F)c2)c1,"8.2 µM [falling, partial curve, poor fit]",–
Cc1ccc(CNC(=O)C2CCC(=O)N(CCCN3CCOCC3)C2)cc1 (stereo unspecified),"12.6 µM [rising, partial curve]",–
COc1ccc(S(=O)(=O)Cc2ccc(C(=O)NC3CCCC3)o2)cc1,"2.91 µM [rising, single point]",–
Cc1nc(N2CCOCC2)nc(Oc2ccccc2F)c1[N+](=O)[O-],"31.6 µM [falling, single point]",–
Cc1cc(C)nc(N(C#N)CC(=O)N2CCC(C(N)=O)CC2)n1,"29.1 µM [rising, single point]",–
COC(=O)c1c(C)n(-c2ccc(OC)cc2)c2ccc(O)cc12,"29.1 µM [falling, single point]",–
CN1CCN(CCCC(=O)c2ccc(C3CCCC3)cc2)CC1,"2.59 µM [rising, partial curve, poor fit]",–
CCOc1ccc(-c2nnc(SCC(=O)Nc3ccc4c(c3)c3ccccc3n4CC)n2N)cc1,"3.16 µM [rising, full curve]",–
COc1ccc(N2COC3c4cccc5cccc(c45)C32)cc1 (stereo unspecified),"2.91 µM [falling, partial curve]",–
COc1ccc(CC(=O)OCn2nnc3ccccc3c2=O)cc1,"20.6 µM [falling, single point]",–
Cc1cccc2cc(CN(CCCO)C(=O)Nc3ccccc3Cl)c(=O)[nH]c12,"25.9 µM [falling, single point]",–
Cc1ccc(Nc2nc3ccccc3n3cnnc23)cc1Cl,"0.562 µM [rising, full curve, poor fit]",–
CCN1CCN(Cc2ccc(NC(=O)c3ccc(C)c(NC(=O)c4ccnnc4)c3)cc2C(F)(F)F)CC1,"11.2 µM [falling, partial curve, poor fit]",–
COc1cc(/C=C2\SC(=S)N(CC(=O)Nc3cccnc3)C2=O)cc(OC)c1OC,"0.82 µM [rising, partial curve]",–

SMILES,AC50 [1],AC50 (measured here: IkBa-CBG green luminescence)
Fc1ccc2[nH]c3c(N4CCc5ccccc5C4)ncnc3c2c1,"11.2 µM [falling, partial curve, poor fit]","12.6 µM [rising, single point]"
CCC(=O)c1ccc(OCc2ccc(C#N)cc2)cc1,"6.31 µM [rising, full curve]",–
COc1ccc(NC(=O)CCCN2C(=O)/C(=C\c3ccco3)SC2=S)cc1,"29.1 µM [falling, partial curve, poor fit]",–
COc1ccc(NC(=O)c2cc([N+](=O)[O-])ccc2N2CCN(C)CC2)cc1,"15.8 µM [falling, partial curve, poor fit]",–
CC(=O)NC(c1ccco1)c1cc(F)c2cccnc2c1O (stereo unspecified),"11.6 µM [falling, partial curve] and 25.9 µM [falling, single point]",–
Cc1ccnc2nc(C(=O)Nc3nnc(CC(C)C)s3)nn12,"20.6 µM [falling, single point]",–
COc1ccccc1-c1sc2ccccc2c1-c1ccc(OCCN2CCCCC2)cc1,"16.4 µM [falling, partial curve, poor fit]",–
O=C(O)c1cccc(NC(=S)NC(NC(=O)c2ccco2)C(Cl)(Cl)Cl)c1 (stereo unspecified),"35.5 µM [rising, single point]",–
CS(=O)(=O)c1ccc2nc(NC(=O)c3ccccc3Cl)sc2c1,"11.2 µM [falling, partial curve]",–
COc1ccc(/C=N/NC2=NCCCCC2)c(OC)c1,"10 µM [falling, partial curve, poor fit]",–
COc1ccc(NC(=O)C2CCC(CNS(=O)(=O)c3csc(C(N)=O)c3)CC2)cc1OC (stereo unspecified),"35.5 µM [rising, single point]",–
O=C(Nc1nc2c(Cl)cccc2s1)c1ccc([N+](=O)[O-])o1,"2.82 µM [falling, full curve, poor fit]",–
c1cc2c(cc1-c1csc(NNC3=NCCCCC3)n1)OCCO2,"35.5 µM [falling, single point]",–
O=C(c1cc(COc2ccc(F)cc2Cl)on1)N(CCO)Cc1cccs1,"35.5 µM [falling, single point]",–
O=c1[nH]c(SCc2ccccc2)nc2ccsc12,"35.5 µM [falling, single point]",–
O=c1oc2ccccc2c(NC2CCCCC2)c1NS(=O)(=O)c1ccc(F)c(Cl)c1,"15.8 µM [falling, single point]",–
O=C(NN=C1CCC(=NNC(=O)c2cccnc2)CC1)c1cccnc1,"2.51 µM [falling, full curve]",–
S=c1[nH]nc(-c2cc(-c3ccccc3)n[nH]2)n1/N=C/c1ccc(Cl)c(Cl)c1,"7.08 µM [rising, full curve, poor fit]",–
O=C(Nc1sc2c(c1C(=O)O)CCCCC2)c1cccnc1,"0.708 µM [falling, full curve, poor fit]",–
O=C1CN(C(=O)c2cccc(Br)c2)C(c2ccccc2)c2cc(Cl)ccc2N1 (stereo unspecified),"11.2 µM [falling, partial curve, poor fit]",–

# Full records, looked up by structure:
# CC(=O)NC(c1ccco1)c1cc(F)c2cccnc2c1O (stereo unspecified) reads AC50 [1]: 11.6 µM [falling, partial curve] and 25.9 µM [falling, single point]
# O=C(c1cc(COc2ccc(F)cc2Cl)on1)N(CCO)Cc1cccs1 reads AC50 [1]: 35.5 µM [falling, single point]
